# Where a name gives a salt, the structure may show the parent alone. ± gives the standard deviation of the averaged measurements. The list shows a part of the results. The data scatter; read single values as rough.
# Experiments:
# hAMSC donor 1 [1] = test: Hoechst total cell count ratio vs vehicle control; higher = more cells (less toxicity)
# hAMSC donor 2 [2] = test: as above
# hAMSC donor 1 [3] = test: transgenic luciferase activity (RLU/mg protein) fold change vs vehicle control (ratio); higher = more transgene expression
# hAMSC donor 2 [4] = test: as above
# hAMSC donor 1 [5] = test: transfection efficiency (EGFP+ cells / Hoechst count) fold change vs vehicle control (ratio); hAMSC are human adipose-derived mesenchymal stem cells given an EGFP-luciferase plasmid by lipofection; higher = enhanced transfection
# hAMSC donor 2 [6] = test: as above
# [7] = priming compound concentration 0.2 µM
# [8] = priming compound concentration 1.7 µM
# [9] = priming compound concentration 13 µM
Structure (SMILES),Hoechst total cell count ratio (hAMSC donor 1 [1]; [7]),Hoechst total cell count ratio (hAMSC donor 1 [1]; [8]),Hoechst total cell count ratio (hAMSC donor 1 [1]; [9]),Hoechst total cell count ratio (hAMSC donor 2 [2]; [7]),Hoechst total cell count ratio (hAMSC donor 2 [2]; [8]),Hoechst total cell count ratio (hAMSC donor 2 [2]; [9]),transgenic luciferase activity (hAMSC donor 1 [3]; [7]),transgenic luciferase activity (hAMSC donor 1 [3]; [8]),transgenic luciferase activity (hAMSC donor 1 [3]; [9]),transgenic luciferase activity (hAMSC donor 2 [4]; [7]),transgenic luciferase activity (hAMSC donor 2 [4]; [8]),transgenic luciferase activity (hAMSC donor 2 [4]; [9]),transfection efficiency (hAMSC donor 1 [5]; [7]),transfection efficiency (hAMSC donor 1 [5]; [8]),transfection efficiency (hAMSC donor 1 [5]; [9]),transfection efficiency (hAMSC donor 2 [6]; [7]),transfection efficiency (hAMSC donor 2 [6]; [8]),transfection efficiency (hAMSC donor 2 [6]; [9])
CCCCC/C=C\C/C=C\C/C=C\C/C=C\CCCC(=O)Nc1ccc(O)cc1,1.38 ± 0.23,1.33 ± 0.091,0.965 ± 0.056,1.19 ± 0.082,0.868 ± 0.033,0.834 ± 0.029,0.507 ± 0.1,1.78 ± 1.8,0.105 ± 0.1,0.546 ± 0.45,0.637 ± 0.033,1.04 ± 0.2,0.926 ± 0.35,0.971 ± 0.083,1.35 ± 0.092,0.929 ± 0.22,1.03 ± 0.022,1.3 ± 0.18
N=C(NCc1ccc(Cl)cc1)SCCCc1c[nH]cn1 [Clobenpropit],1.12 ± 0.077,1.2 ± 0.046,1.16 ± 0.21,0.974 ± 0.09,1.36 ± 0.29,1.34 ± 0.13,0.947 ± 0.3,0.6 ± 0.35,–,0.469 ± 0.39,0.877 ± 0.2,0.819 ± 0.3,1.57 ± 0.56,1.32 ± 0.13,0.521 ± 0.062,0.964 ± 0.14,0.913 ± 0.11,0.932 ± 0.16
CNC1=Nc2ccc(Cl)cc2C(c2ccccc2)=[N+]([O-])C1 [Chlordiazepoxide],1.09 ± 0.092,1.07 ± 0.25,1.31 ± 0.015,0.817 ± 0.11,0.947 ± 0.2,1.01 ± 0.17,1.24 ± 0.2,–,–,–,1.17 ± 0.61,–,1.36 ± 0.27,0.919 ± 0.25,0.81 ± 0.26,1.11 ± 0.22,1.05 ± 0.12,1.04 ± 0.18
CN1CCN(C(=O)O[C@H]2c3nccnc3C(=O)N2c2ccc(Cl)cn2)CC1 [Eszopiclone],1.2 ± 0.045,1.5 ± 0.26,1.22 ± 0.035,1.02 ± 0.13,1.05 ± 0.043,1.07 ± 0.078,–,–,0.666 ± 0.081,0.633 ± 0.098,–,0.844 ± 0.064,1.08 ± 0.24,0.894 ± 0.12,0.877 ± 0.19,1.24 ± 0.15,1.08 ± 0.042,1.262 ± 0.0046
CN1C(=O)CN=C(c2ccccc2)c2cc([N+](=O)[O-])ccc21 [Nimetazepam],1.18 ± 0.21,1.2 ± 0.28,1.01 ± 0.069,1.13 ± 0.38,1.48 ± 0.05,0.695 ± 0.16,1.88 ± 1.1,–,–,–,0.437 ± 0.11,–,0.975 ± 0.24,0.953 ± 0.17,1.15 ± 0.42,1.27 ± 0.27,0.999 ± 0.1,1.26 ± 0.082
O=C1Nc2ccc(Cl)cc2C(c2ccccc2Cl)=NC1O (stereo not drawn) [Lorazepam],1.17 ± 0.026,1.13 ± 0.086,1.36 ± 0.14,1.75 ± 0.15,1.63 ± 0.34,1.51 ± 0.11,–,1.01 ± 0.23,–,0.406 ± 0.082,0.667 ± 0.12,–,0.659 ± 0.24,1.09 ± 0.46,0.647 ± 0.078,0.567 ± 0.038,0.551 ± 0.21,0.722 ± 0.082
O=c1c2ccccc2[se]n1-c1ccccc1 [Ebselen],1.09 ± 0.03,1.13 ± 0.1,1.04 ± 0.15,0.925 ± 0.15,1.02 ± 0.12,1.05 ± 0.34,0.921 ± 0.12,–,–,–,0.586 ± 0.084,–,0.972 ± 0.04,0.61 ± 0.15,0.865 ± 0.29,0.988 ± 0.17,0.883 ± 0.058,0.969 ± 0.25
CC[C@]1(O)CC[C@H]2[C@@H]3CCC4=CCCC[C@@H]4[C@H]3CC[C@@]21C [Ethylestrenol],1.23 ± 0.046,1.33 ± 0.13,1.28 ± 0.079,1.11 ± 0.11,1.27 ± 0.18,1.25 ± 0.11,1.68 ± 0.46,–,–,1.22 ± 0.31,–,–,0.875 ± 0.14,0.894 ± 0.31,1.54 ± 0.5,1.52 ± 0.39,0.911 ± 0.2,1.06 ± 0.23
CN1[C@@H]2CC[C@H]1C[C@@H](OC(=O)C(CO)c1ccccc1)C2 (stereo partly drawn) [Atropine],1.22 ± 0.17,1.27 ± 0.25,1.3 ± 0.097,1.12 ± 0.15,1.03 ± 0.085,1.25 ± 0.13,–,–,0.815 ± 0.16,0.741 ± 0.15,–,0.814 ± 0.47,0.992 ± 0.12,1.03 ± 0.08,1.05 ± 0.22,1.24 ± 0.34,1.11 ± 0.11,1 ± 0.043
Cc1ccc(-c2nc3ccc(C)cn3c2CC(=O)N(C)C)cc1 [Zolpidem tartrate],1.14 ± 0.034,1.42 ± 0.074,1.37 ± 0.39,1.18 ± 0.24,0.608 ± 0.086,0.862 ± 0.28,0.68 ± 0.17,0.715 ± 0.29,–,–,0.648 ± 0.024,0.332 ± 0.27,1.32 ± 0.21,1.06 ± 0.16,1.24 ± 0.11,0.813 ± 0.2,1.9 ± 0.24,1.24 ± 0.21
CN1C(=O)COc2c(C(=O)NC3CN4CCC3CC4)cc(Cl)cc21 (stereo not drawn) [Azasetron hydrochloride],1.26 ± 0.037,1.19 ± 0.2,1.02 ± 0.13,1.22 ± 0.23,1.06 ± 0.054,1.26 ± 0.059,0.932 ± 0.16,–,–,–,–,–,1.03 ± 0.05,0.993 ± 0.33,1.17 ± 0.27,1.02 ± 0.12,1.1 ± 0.12,1.1 ± 0.24
C[N+]1(CCC(C(N)=O)(c2ccccc2)c2ccccc2)CCCCC1 [Fenpiverinium bromide],1.34 ± 0.18,1.31 ± 0.059,1.35 ± 0.055,0.771 ± 0.11,1.08 ± 0.099,1.31 ± 0.22,0.716 ± 0.33,–,–,0.624 ± 0.16,–,–,0.999 ± 0.17,1.17 ± 0.31,1.66 ± 0.11,1.61 ± 0.11,1.06 ± 0.13,1 ± 0.13
CC(C)c1cccc(C(C)C)c1O [Propofol],1.12 ± 0.16,1.29 ± 0.26,1.21 ± 0.087,1.1 ± 0.12,1.08 ± 0.15,1.19 ± 0.022,1.52 ± 0.98,–,–,0.901 ± 0.31,–,–,0.63 ± 0.23,1.13 ± 0.17,1.23 ± 0.29,1.13 ± 0.19,0.816 ± 0.085,0.929 ± 0.11

# Looked up above:
# Value for CCCCC/C=C\C/C=C\C/C=C\C/C=C\CCCC(=O)Nc1ccc(O)cc1 under Hoechst total cell count ratio (hAMSC donor 1 [1]; [8]): 1.33 ± 0.091
# Value for O=c1c2ccccc2[se]n1-c1ccccc1 [Ebselen] under Hoechst total cell count ratio (hAMSC donor 1 [1]; [9]): 1.04 ± 0.15

# Reference: the supplement of paper PMC7238544
